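Whole-parasite assay of Trypanosoma brucei over 72 hours; the read-out is not stated. Concentration: 30 µM. Higher reads as stronger inhibition (inferred: compounds with an IC50 in retests scored well above the rest). Values scatter widely below zero; nearly all retest evidence comes from the higher of the two concentrations used. About 64,000 compounds were tested under these conditions; 1.5% (about 940) showed 50% or more at least once.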

Each number is a percent effect as filed.
How 0% and 100% were set is not recorded. Most values in the screen are low, and negative values occur.
This is an unselected part of the compounds tested.

structure,effect
CN1CCC(N(CCc2ccccc2)C(=O)c2ccoc2)CC1,0.8706
O=C(c1ccc2c(c1)COC2)N1CCCC(n2cncn2)C1 (stereo not drawn),-16.17
Cc1nn(C)c(C)c1C1CCCN1C(=O)CCNc1ncccn1 (stereo not drawn),18.37
O=C(O)C(F)(F)F.O=C1N(Cc2cccc(F)c2)CCC12CCN(c1ccccn1)CC2,-2.034
CC(O)(CNc1ccc(Cl)c(C#N)n1)c1ccccc1 (stereo not drawn),-7.851
COc1cc(C)c(CNC(C)c2nc(C)cs2)cc1OC (stereo not drawn),-54.55
CS(=O)(=O)c1nccn1Cc1ccc(OC(F)F)cc1,-14.33
CCc1cc(N2CCC(NCc3ccc(C)o3)CC2)ncn1,-0.6477
CC(C)NC(=O)NC(=O)C(C)N1CCN(C2CCN(C(C)C)CC2)CC1 (stereo not drawn),-52.84
O=C(O)C(F)(F)F.[H][C@@]12CCN(CCc3ccccc3)C[C@@]1([H])O[C@@H](C(=O)NC1CC1)C2,-9.609
CCc1nccn1C1CCCN(C(=O)c2ccc3c(c2)nnn3C)C1 (stereo not drawn),0.5996
CN(C(=O)NCC1(CN2CCOCC2)CCCCC1)C1CC1,-5.216
CN1CCCC1CCn1ccnc1-c1ccc2ccccc2n1 (stereo not drawn),-22.11
CCc1noc(CC)c1CC(=O)N1CCC(C(=O)NC(C)C)CC1,-9.89
Cc1cc(C)n(-c2cncc(N3CCC(C(=O)N(C)C)CC3)n2)n1,-99.91
COCCCN1CC2(CCCN(c3ncnc4[nH]cnc34)C2)CCC1=O (stereo not drawn),-21.08
Cc1cccc(NC(=O)N2CCCn3cnc(CN(C)C(C)C)c3C2)c1.O=C(O)C(F)(F)F,-4.091
CC(NCCn1c(=O)oc2ccccc21)c1ccccn1 (stereo not drawn),-49.98
O=C1CCc2cc(C(=O)NCc3ccc(-n4cncn4)nc3)ccc2N1,-25.98
COc1ccc(N2CCN(C[C@@H](C)CO)CC2=O)cc1,12.64
Oc1cc(C2CCCCN2Cc2ccsc2)nc(-c2ccncc2)n1 (stereo not drawn),-12.11
O=S(=O)(CCCS(=O)(=O)c1ccc2c(c1)OCCCO2)c1ccccc1,-30.91
CCN1CCC(c2nnc(CN3CCCC3)n2C2CC2)CC1,-4.105
Cc1cc(NC(=O)COC(=O)c2ccc(F)cc2Br)n(C)n1,5.18
CNS(=O)(=O)CC1CCCN1C(=O)c1ccc2cc[nH]c2c1 (stereo not drawn),-22.16
[H][C@]12CNC[C@@]1(C(=O)NCCS(=O)(=O)CC)CN(C1CCCC1)C2,3.877
Cc1csc(C2CCCCN2C(=O)COCc2nc(C)no2)n1 (stereo not drawn),-36.11
NC(=O)C1CCN(CC(=O)N(Cc2ccccc2)Cc2nccs2)CC1,-16.1
COCCOCC(=O)N(Cc1cccc(C)c1)C(C)C,4.926
CCc1nnc(CN(C)c2nccc(CCC(F)(F)F)n2)o1,-25.4
COc1ccc(Br)cc1SCCCS(C)(=O)=O,-13.83
O=C(CCC1CCN(Cc2ccncc2)CC1)Nc1ccccc1Cl,-15.79
O=c1[nH]cc(Nc2ccccc2)c(=O)[nH]1,-78.14
Cn1cccc1C(=O)N1CCC2(CC1)CCN2S(C)(=O)=O,-6.009
CC(C)c1ccc(C(=O)N2CCOCC2CC(=O)c2ccco2)cn1 (stereo not drawn),-17.23
COc1ncnc(N(C)C)c1NC(=O)Cc1cc(F)ccc1F,-48.98
[H][C@]12CCCCN1CCC[C@H]2CCC(=O)NCCc1nc(N)cc(O)n1,2.851
COc1c(C)cc(CNCc2ccnc(N3CCOCC3)c2)cc1C.Cl,15.01
CC(C)N1CCc2onc(Cn3cccc3)c2C1.O=C(O)C(F)(F)F,-6.177
Cc1ccccc1-n1cnc(Cl)c1C(=O)O,-14.9
CSCc1cccc(S(=O)(=O)NCCCn2ccnc2)c1,7.389
[H][C@@]12C[C@@H](C(=O)NC)N(C(C)=O)[C@]1([H])CN(Cc1ccc(C)o1)C2,-22
COCCN1CC2(CCC1=O)CCN(Cc1cc(F)ccc1Cl)CC2,-18.58
C[C@@H]1CN(c2ccc(C#N)cn2)CC[C@@]1(O)C1CCOCC1,17.56
O=C1NCC2(CCCN(Cc3ccncc3)C2)Oc2ccccc21 (stereo not drawn),6.453
[H][C@@]12CN(Cc3cccnc3)CCO[C@]1([H])CN(Cc1scnc1C)C2,-23.85
[H][C@]12CC[C@]([H])(CN(Cc3ccncc3)C1)N(S(C)(=O)=O)C2,-43.63
OCC(CO)N1CCCC(Cc2cnc(Nc3ccccn3)cn2)C1 (stereo not drawn),-6.686
COc1c(CNCC(O)c2ccccc2F)c(C(C)C)nn1C (stereo not drawn),-39.5
COc1ccc(F)c(-c2nccn2CCN2CCCC2)c1,-10.25
CCc1nc2c(c(N(C)Cc3nncn3CCOC)n1)CCNCC2,-11.09
Cc1cc(C)nc(Nc2nccnc2C2CCCN(C(C)C)C2)n1 (stereo not drawn),1.814
CCc1nc(C2CCCN(C(=O)c3ccc4[nH]nnc4c3)C2)no1 (stereo not drawn),2.23
COCCn1/c(=N/C(=O)C(C)C)sc2cc(Cl)ccc21,-27.94
CS(=O)(=O)NCC1CCCCN1C(=O)Nc1cccnc1N1CCCC1 (stereo not drawn),0.6444
O=C(c1ccc2c(c1)OCO2)N1CCCC(n2ccnc2)C1 (stereo not drawn),-1.512
CC(C)(C)C(O)CN1CCN(Cc2ccc(C#N)cc2)CC1 (stereo not drawn),-235
COC(=O)c1cc(C)nc(N2CCN(Cc3ccn(C(C)C)c3)CC2)n1,-4.87
CC(C(=O)N1CCCN(Cc2ccc(C#N)cc2)CC1)n1cccn1 (stereo not drawn),-0.5503
Cn1cccc1-c1nnc(C2(c3ccc4c(c3)OCO4)CCOCC2)o1,3.164
NC(=O)c1csc(N2CCN(Cc3cccc4nsnc34)CC2)n1,-50.53
O=C(C(CNCc1cccc(O)c1)c1ccccc1)N1CCOCC1 (stereo not drawn),-5.325
CCS(=O)(=O)CCSc1cccc(C#N)c1,-23.41
O=C(Nc1ccccc1)c1cc2n(n1)CCCN(C(=O)c1ccc[nH]1)C2,-6.318
Cc1nn(C)c(C)c1CCC(=O)N(C)Cc1ccc2nsnc2c1,0.5288
Cc1nn(C)c(Cl)c1C1CCCN1C(=O)c1ccc(N(C)C)nn1 (stereo not drawn),-30.49
COc1ccc2cc(NC(=O)CCNc3nc(C)cc(C)n3)cnc2c1,-22.73
CCOc1nc2cnccc2n(CC(=O)NCCc2ccccc2)c1=O,-1.732
Cc1cn[nH]c1C1CCCCN1C(=O)CCc1c(C)n[nH]c1C (stereo not drawn),-49.57
CC(C)c1cc(N2CCN(c3ccc(O)cc3)CC2)n2nccc2n1,2.093
COc1ncccc1NC(=O)C1CCN(S(C)(=O)=O)CC1,13.61
[H][C@]12C[C@H](C(=O)NCC3CC3)N(C(C)C)[C@@]1([H])CN(Cc1ccco1)C2,-3.2
CC(C)S(=O)(=O)c1ccccc1C(=O)NCC1Cc2ccccc2O1 (stereo not drawn),-17.7
CCc1noc(-c2cccc(NC(=O)C(C)(C)C)c2)n1,4.877
O=C(NCc1ccccc1F)NC1CCCN(c2ncccn2)C1 (stereo not drawn),0.1875
O=C(c1cnn2cc(CCO)cnc12)N1CCOC(C(F)(F)F)C1 (stereo not drawn),-56.31
O=C(NCCCO)c1nc(-c2ccc3cc[nH]c3c2)no1,10.78
CC1(C)COCCN1C(=O)Cc1csc(Cc2ccccn2)n1,-8.723
O=C(O)C(F)(F)F.O=S(=O)(c1cccs1)N1CCCn2nnc(CN3CCCCC3)c2C1,1.259
CCO[C@@H]1CCN(c2ccc(C)nn2)[C@@H]1Cc1cnn(C)c1,-24.65
CCC(C)CNCC1(S(C)(=O)=O)CCOCC1 (stereo not drawn),-46.95
Cc1cc(C2CCC2)nc(N(C)Cc2ncccc2C)n1,-78.26
COc1coc(C(=O)Nc2nc(-c3cccnc3)cs2)cc1=O,-5.968
CC(C)c1nc(CN2CCN(C(=O)CC3CCCCC3)CC2)no1,-43.2
CC(=O)N1CCC(CCNC(C)c2cc(C)cc(C)c2)CC1 (stereo not drawn),-18.33
c1cc(-c2nnn3c2COC(CNCC2CCOCC2)C3)ccn1 (stereo not drawn),-42.92
CC(C)Oc1ncccc1CNC(=O)c1cc[nH]n1,-16.66
O=C(O)C(F)(F)F.[H][C@]12CCN(c3ncccn3)[C@@]1([H])CC[C@@H](COCC(=O)N(C)C)O2,-8.509
Cn1ncc(NCc2cc(F)cc(F)c2)c(Cl)c1=O,-22.35
Cc1ccc(C(N)c2cccs2)cc1 (stereo not drawn),-106.6
Cn1cc(CN2CCC3(CC2)CC(=O)Nc2ccccc23)cn1,-44.87

The first 5 entries again:

structure,effect
CN1CCC(N(CCc2ccccc2)C(=O)c2ccoc2)CC1,0.8706
O=C(c1ccc2c(c1)COC2)N1CCCC(n2cncn2)C1 (stereo not drawn),-16.17
Cc1nn(C)c(C)c1C1CCCN1C(=O)CCNc1ncccn1 (stereo not drawn),18.37
O=C(O)C(F)(F)F.O=C1N(Cc2cccc(F)c2)CCC12CCN(c1ccccn1)CC2,-2.034
CC(O)(CNc1ccc(Cl)c(C#N)n1)c1ccccc1 (stereo not drawn),-7.851

Source: ChEMBL document CHEMBL3988442, “University of Dundee, Small-Polar-MMV Screening Library” (2021).